{
  "source": "paper PMC7037232",
  "about": "“Effect of Cholesterol on the Organic Cation Transporter OCTN1 (SLC22A4)” (International Journal of Molecular Sciences, 2020)",
  "assay": "Enzymatic quantitation of cholesterol/CHS in proteoliposome lipids",
  "conditions": "10 mM MβCD; for concentration of cholesterol after MβCD treatment: proteoliposomes without added CHS",
  "procedure": "Proteoliposomes reconstituted with the recombinant OCTN1 and added or not with CHS were incubated with MβCD as above described and then, MβCD was removed by chromatography on Sephadex G-75 column as described in Section 4.7.\nQuantitation was performed using the Cholesterol Quantitation Kit MAK043 by Merck Life Science s.r.l., 20149 Milan, Italy,). Assay was performed in the presence of cholesterol esterase with absorbance measured on a microplate reader at 570 nm.",
  "data": [
    {"substance": "Methyl-beta-CycloDextrin [MβCD]", "values": [
      {"measurement": "CHS concentration after MβCD treatment", "setting": "proteoliposomes with initial 83 µg CHS/mg total lipids", "value": 50, "unit": "µg CHS/mg total lipids"},
      {"measurement": "CHS concentration after MβCD treatment", "setting": "proteoliposomes with initial 8.3% CHS", "value": 5, "unit": "%"},
      {"measurement": "concentration of cholesterol after MβCD treatment", "setting": "10 µg/mg total lipids before treatment", "value": 6.5, "unit": "µg/mg total lipids"},
      {"measurement": "concentration of cholesterol after MβCD treatment", "setting": "1.0% before treatment", "value": 0.65, "unit": "%"}
    ]}
  ]
}
